In US20060079439A1, “Elastin prevents occlusion of body vessels by vascular smooth muscle cells” (priority 2002, published 2006):
Some of these results come from one statement about several compounds together.

B1: tropoelastin: protein encoded by the elastin gene; human amino acid sequence SEQ ID NO: 2; used as recombinant tropoelastin (protein, listed as Homo sapiens)
chain: MAGLTAAAPRPGVLLLLLSILHPSRPGGVPGAIPGGVPGGVFYPGAGLGALGGGALGPGGKPLKPVPGGLAGAGLGAGLGAFPAVTFPGALVPGGVADAAAAYKAAKAGAGLGGVPGVGGLGVSAGAVVPQPGAGVKPGKVPGVGLPGVYPGGVLPGARFPGVGVLPGVPTGAGVKPKAPGVGGAFAGIPGVGPFGGPQPGVPLGYPIKAPKLPGGYGLPYTTGKLPYGYGPGGVAGAAGKAGYPTGTGVGPQAAAAAAAKAAAKFGAGAAGVLPGVGGAGVPGVPGAIPGIGGIAGVGTPAAAAAAAAAAKAAKYGAAAGLVPGGPGFGPGVVGVPGAGVPGVGVPGAGIPVVPGAGIPGAAVPGVVSPEAAAKAAAKAAKYGARPGVGVGGIPTYGVGAGGFPGFGVGVGGIPGVAGVPSVGGVPGVGGVPGVGISPEAQAAAAAKAAKYGVGTPAAAAAKAAAKAAQFGLVPGVGVAPGVGVAPGVGVAPGVGLAPGVGVAPGVGVAPGVGVAPGIGPGGVAAAAKSAAKVAAKAQLRAAAGLGAGIPGLGVGVGVPGLGVGAGVPGLGVGAGVPGFGAGADEGVRRSLSPELREGDPSSSQHLPSTPSSPRVPGALAAAKAAKYGAAVPGVLGGLGALGGVGIPGGVVGAGPAAAAAAAKAAAKAAQFGLVGAAGLGGLGVGGLGVPGVGGLGGIPPAAAAKAAKYGAAGLGGVLGGAGQFPLGGVAARPGFGLSPIFPGGACLGKACGRKRK

Tested on: Eln −/− vascular smooth muscle cells
Conditions: following 3 hours of treatment

Molecule | elastin −/− vascular smooth muscle cells exhibiting actin stress fibers
VGVAPG (A bioactive fragment of tropoelastin.) [elastin peptide] | 70-80%
B1 | 70-80%
